Assay [1] deals with p300 (human (endogenous in HUVEC)) (UniProt Q09472). The experiment in a line: co-IP; HUVEC lysate precipitated with anti-p300 or anti-CBP antibody, protein A/G agarose beads; blot for Twist1; cells under hypoxia, with or without 10 mM lactate, with or without the MCT inhibitor CHC.
In assay [2] the target is CBP (human (endogenous in HUVEC)) (UniProt Q92793). The assay is described as above.
Assay [3] addresses Twist1 (human (endogenous in HUVEC)) (UniProt Q15672). The experiment in a line: co-IP; 200 ug protein of HUVEC lysate incubated with 5 ug anti-Twist1 antibody at 4 °C overnight, protein A/G agarose beads 4 h, washed with PBS; blot for p300/CBP; cells under normoxia or hypoxia (1% O2, 48 h), with or without 10 mM lactate, with or without the MCT inhibitor CHC.

Sequences of proteins named here, by UniProt entry; tags and fusion partners are left off.
UniProt Q09472: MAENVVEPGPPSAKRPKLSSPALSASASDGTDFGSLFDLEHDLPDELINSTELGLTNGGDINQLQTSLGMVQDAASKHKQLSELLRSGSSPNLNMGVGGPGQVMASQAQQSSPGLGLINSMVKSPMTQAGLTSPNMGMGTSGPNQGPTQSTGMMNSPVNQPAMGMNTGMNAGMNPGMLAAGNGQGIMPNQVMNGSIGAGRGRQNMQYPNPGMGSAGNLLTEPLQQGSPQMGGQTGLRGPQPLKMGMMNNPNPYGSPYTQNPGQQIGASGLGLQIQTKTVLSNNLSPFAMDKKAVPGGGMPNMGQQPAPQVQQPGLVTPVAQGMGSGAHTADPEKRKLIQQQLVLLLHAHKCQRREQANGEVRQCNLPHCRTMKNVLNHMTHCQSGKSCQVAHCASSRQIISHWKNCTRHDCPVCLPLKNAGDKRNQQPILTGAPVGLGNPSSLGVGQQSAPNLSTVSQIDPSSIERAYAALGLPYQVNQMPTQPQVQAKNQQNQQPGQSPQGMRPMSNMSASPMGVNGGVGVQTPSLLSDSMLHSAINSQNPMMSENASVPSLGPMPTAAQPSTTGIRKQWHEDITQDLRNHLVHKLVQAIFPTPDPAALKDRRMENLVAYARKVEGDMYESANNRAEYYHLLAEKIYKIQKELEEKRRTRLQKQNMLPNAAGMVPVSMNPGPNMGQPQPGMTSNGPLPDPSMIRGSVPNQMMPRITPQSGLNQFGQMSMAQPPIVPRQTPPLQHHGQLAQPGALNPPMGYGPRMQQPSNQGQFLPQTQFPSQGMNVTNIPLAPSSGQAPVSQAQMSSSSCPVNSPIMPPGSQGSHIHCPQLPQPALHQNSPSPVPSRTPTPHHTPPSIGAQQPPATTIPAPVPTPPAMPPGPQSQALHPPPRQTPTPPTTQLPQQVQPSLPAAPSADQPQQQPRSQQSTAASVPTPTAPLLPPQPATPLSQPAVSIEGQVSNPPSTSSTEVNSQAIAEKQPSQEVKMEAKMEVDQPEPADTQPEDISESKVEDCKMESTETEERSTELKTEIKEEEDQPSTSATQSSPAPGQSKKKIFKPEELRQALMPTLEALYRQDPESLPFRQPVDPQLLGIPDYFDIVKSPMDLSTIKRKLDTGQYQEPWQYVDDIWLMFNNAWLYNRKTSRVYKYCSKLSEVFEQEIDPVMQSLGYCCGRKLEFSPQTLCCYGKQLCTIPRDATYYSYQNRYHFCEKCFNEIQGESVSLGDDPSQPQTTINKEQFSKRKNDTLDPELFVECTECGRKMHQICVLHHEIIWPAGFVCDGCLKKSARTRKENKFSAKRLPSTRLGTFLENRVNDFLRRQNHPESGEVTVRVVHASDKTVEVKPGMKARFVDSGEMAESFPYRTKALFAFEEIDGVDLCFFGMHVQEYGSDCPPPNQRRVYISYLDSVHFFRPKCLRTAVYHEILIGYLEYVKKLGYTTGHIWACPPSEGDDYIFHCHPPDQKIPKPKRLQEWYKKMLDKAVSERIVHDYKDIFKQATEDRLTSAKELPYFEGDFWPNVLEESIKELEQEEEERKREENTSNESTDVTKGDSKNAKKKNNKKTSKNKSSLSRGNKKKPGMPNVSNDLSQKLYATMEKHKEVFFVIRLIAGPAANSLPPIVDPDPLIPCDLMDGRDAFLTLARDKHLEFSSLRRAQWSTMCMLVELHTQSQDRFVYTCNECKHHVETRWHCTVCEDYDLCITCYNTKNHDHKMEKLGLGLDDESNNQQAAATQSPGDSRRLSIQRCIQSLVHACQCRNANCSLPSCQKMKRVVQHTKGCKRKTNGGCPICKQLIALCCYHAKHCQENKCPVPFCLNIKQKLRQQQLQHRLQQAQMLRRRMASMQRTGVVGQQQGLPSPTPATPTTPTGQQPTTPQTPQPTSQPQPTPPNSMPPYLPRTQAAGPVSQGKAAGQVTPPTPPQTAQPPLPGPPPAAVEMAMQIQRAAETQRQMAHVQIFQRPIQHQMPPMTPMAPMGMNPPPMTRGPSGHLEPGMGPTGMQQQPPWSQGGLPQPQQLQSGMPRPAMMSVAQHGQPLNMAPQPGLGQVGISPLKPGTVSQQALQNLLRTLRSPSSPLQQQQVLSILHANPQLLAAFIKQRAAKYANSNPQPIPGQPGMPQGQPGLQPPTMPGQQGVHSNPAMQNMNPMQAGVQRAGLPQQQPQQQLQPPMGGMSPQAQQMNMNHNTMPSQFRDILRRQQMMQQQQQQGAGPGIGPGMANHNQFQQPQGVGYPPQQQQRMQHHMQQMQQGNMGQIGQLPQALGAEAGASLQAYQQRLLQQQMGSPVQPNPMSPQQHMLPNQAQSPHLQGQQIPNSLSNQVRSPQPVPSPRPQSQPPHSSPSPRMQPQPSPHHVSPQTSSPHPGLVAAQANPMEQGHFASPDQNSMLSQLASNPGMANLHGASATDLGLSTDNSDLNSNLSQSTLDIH
UniProt Q92793: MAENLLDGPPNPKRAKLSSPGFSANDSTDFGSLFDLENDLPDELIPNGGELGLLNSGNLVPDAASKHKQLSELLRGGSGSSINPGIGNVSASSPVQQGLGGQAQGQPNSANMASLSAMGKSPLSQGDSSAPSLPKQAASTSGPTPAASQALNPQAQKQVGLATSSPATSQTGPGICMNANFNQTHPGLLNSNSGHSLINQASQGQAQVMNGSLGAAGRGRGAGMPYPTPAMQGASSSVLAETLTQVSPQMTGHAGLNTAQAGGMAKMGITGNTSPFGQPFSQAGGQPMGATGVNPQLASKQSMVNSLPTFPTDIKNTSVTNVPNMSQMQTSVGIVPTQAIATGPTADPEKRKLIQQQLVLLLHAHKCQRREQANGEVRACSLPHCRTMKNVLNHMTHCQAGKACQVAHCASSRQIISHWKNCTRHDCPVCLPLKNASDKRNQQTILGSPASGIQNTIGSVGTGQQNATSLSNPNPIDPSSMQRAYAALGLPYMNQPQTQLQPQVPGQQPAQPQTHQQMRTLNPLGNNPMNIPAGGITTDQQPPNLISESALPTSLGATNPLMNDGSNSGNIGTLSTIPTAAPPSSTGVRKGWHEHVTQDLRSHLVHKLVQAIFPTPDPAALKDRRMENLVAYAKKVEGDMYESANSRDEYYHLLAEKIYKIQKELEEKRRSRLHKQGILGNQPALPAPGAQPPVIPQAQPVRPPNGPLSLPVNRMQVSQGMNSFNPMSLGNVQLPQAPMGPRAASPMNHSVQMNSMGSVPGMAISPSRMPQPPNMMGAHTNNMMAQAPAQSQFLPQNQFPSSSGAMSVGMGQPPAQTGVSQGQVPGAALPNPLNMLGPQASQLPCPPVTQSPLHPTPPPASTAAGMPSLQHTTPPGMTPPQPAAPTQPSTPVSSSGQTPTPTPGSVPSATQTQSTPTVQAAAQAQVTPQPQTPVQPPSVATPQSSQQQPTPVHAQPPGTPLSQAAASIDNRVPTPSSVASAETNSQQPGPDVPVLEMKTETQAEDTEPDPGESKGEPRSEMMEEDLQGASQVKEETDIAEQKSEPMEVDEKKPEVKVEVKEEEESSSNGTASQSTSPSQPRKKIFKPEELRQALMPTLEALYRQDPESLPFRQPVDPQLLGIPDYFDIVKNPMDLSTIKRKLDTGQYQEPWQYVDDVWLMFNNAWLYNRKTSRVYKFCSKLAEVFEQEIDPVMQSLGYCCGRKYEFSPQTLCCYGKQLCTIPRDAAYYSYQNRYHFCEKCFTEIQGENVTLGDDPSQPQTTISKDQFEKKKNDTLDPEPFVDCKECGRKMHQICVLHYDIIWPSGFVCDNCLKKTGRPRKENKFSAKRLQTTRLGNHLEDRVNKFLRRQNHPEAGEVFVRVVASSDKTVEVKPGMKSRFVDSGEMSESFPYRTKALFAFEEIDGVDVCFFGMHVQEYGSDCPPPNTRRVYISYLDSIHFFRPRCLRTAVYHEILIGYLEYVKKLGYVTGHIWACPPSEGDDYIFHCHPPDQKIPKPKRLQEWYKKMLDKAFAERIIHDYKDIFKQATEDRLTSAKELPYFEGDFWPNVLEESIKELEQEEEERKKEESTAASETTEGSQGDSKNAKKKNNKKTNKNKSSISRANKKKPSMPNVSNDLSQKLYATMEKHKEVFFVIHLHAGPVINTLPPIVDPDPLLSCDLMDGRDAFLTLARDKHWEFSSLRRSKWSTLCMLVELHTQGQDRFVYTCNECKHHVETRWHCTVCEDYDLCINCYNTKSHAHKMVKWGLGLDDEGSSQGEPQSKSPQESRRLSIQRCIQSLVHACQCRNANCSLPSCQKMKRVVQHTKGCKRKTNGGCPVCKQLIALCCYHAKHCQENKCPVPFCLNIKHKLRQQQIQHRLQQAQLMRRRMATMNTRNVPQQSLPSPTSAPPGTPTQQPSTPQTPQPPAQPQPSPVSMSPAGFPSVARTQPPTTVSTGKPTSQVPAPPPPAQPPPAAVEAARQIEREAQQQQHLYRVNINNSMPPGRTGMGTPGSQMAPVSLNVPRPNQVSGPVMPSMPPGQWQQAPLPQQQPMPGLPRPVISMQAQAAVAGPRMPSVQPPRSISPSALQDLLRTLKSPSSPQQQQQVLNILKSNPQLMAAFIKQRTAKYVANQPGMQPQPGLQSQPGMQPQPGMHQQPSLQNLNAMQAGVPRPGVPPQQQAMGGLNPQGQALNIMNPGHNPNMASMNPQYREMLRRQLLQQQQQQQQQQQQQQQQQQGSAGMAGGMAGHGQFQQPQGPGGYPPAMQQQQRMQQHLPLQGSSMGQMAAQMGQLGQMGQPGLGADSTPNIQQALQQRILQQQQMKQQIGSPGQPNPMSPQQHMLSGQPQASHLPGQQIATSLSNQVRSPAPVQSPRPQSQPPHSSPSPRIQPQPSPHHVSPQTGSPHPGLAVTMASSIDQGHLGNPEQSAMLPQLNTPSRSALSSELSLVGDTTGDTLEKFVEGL
UniProt Q15672: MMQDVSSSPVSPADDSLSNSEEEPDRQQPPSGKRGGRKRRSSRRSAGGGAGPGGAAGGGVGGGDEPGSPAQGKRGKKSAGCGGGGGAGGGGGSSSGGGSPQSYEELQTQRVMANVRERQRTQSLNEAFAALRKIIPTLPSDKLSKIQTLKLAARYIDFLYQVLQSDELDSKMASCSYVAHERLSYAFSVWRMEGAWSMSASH

No constants are given. Whether binding was seen depends on the method and setting. Binding seen in cells or lysates may run through a third protein. Some binding calls cover weakened binding; strength is not graded here.

Regarding Twist1 (from UniProt Q15672 1-202), the binding result in assay [1] and in assay [2] was “binds” each time.

As to p300 (from UniProt Q09472 1-2414), in assay [3], the binding result was “binds”.

For the substance CBP (from UniProt Q92793 1-2442), in assay [3], the binding entry is listed as “binds”.

The record behind these values is paper PMC11653614.
